# The other results are listed elsewhere or left out.
# Key:
# Test in all cases: glycan array binding signal (z-score within array); higher = stronger binding
# Details in all cases: glycan notation: IUPAC condensed, linker removed
# [1] = target: Fuc(a1-2)Gal
# Method in brief: (§1)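 Glycan array binding is given as a within-array Z-score, which can be read as non-binding when negative. The arrays, 3228 of them, came from the Consortium for Functional Glycomics database and were retained only where the protein sequence was available. Z-scores were averaged across arrays of the same protein sequence at different concentrations or buffers and across linkers.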
# [2] = target: Fuc(a1-2)Gal(b1-3)GalNAc
# Method in brief: as §1
# [3] = target: Fuc(a1-2)Gal(b1-3)GalNAc(a1-3)[Fuc(a1-2)]Gal(b1-4)Glc
# Method in brief: as §1
# [4] = target: Fuc(a1-2)Gal(b1-3)GalNAc(a1-3)[Fuc(a1-2)]Gal(b1-4)GlcNAc
# Method in brief: as §1
# [5] = target: Fuc(a1-2)Gal(b1-3)GalNAc(b1-3)Gal
# Method in brief: as §1
# [6] = target: Fuc(a1-2)Gal(b1-3)GalNAc(b1-3)Gal(a1-4)Gal(b1-4)Glc
# Method in brief: as §1
# [7] = target: Fuc(a1-2)Gal(b1-3)GalNAc(b1-4)[Neu5Ac(a2-3)]Gal(b1-4)Glc
# Method in brief: as §1
# [8] = target: Fuc(a1-2)Gal(b1-3)GlcNAc
# Method in brief: as §1
# [9] = target: Fuc(a1-2)Gal(b1-3)GlcNAc(b1-2)Man(a1-3)[Fuc(a1-2)Gal(b1-3)GlcNAc(b1-2)Man(a1-6)]Man(b1-4)GlcNAc(b1-4)GlcNAc
# Method in brief: as §1
# [10] = target: Fuc(a1-2)Gal(b1-3)GlcNAc(b1-2)Man(a1-3)[Fuc(a1-2)Gal(b1-3)GlcNAc(b1-2)Man(a1-6)]Man(b1-4)GlcNAc(b1-4)[Fuc(a1-6)]GlcNAc
# Method in brief: as §1
# [11] = target: Fuc(a1-2)Gal(b1-3)GlcNAc(b1-3)Gal(b1-4)Glc
# Method in brief: as §1
# [12] = target: Fuc(a1-2)Gal(b1-3)GlcNAc(b1-3)GalNAc
# Method in brief: as §1
# [13] = target: Fuc(a1-2)Gal(b1-3)GlcNAc(b1-3)[Fuc(a1-3)[Gal(b1-4)]GlcNAc(b1-6)]Gal(b1-4)Glc
# Method in brief: as §1
# [14] = target: Fuc(a1-2)Gal(b1-3)GlcNAc(b1-3)[Gal(b1-4)GlcNAc(b1-6)]Gal(b1-4)Glc
# Method in brief: as §1
# [15] = target: Fuc(a1-2)Gal(b1-3)GlcNAc(b1-3)[Neu5Ac(a2-6)Gal(b1-4)GlcNAc(b1-6)]Gal(b1-4)Glc
# Method in brief: as §1
# [16] = target: Fuc(a1-2)Gal(b1-3)[Fuc(a1-4)]GlcNAc
# Method in brief: as §1
# [17] = target: Fuc(a1-2)Gal(b1-3)[Fuc(a1-4)]GlcNAc(b1-2)Man(a1-3)[Fuc(a1-2)Gal(b1-3)[Fuc(a1-4)]GlcNAc(b1-2)Man(a1-6)]Man(b1-4)GlcNAc(b1-4)GlcNAc
# Method in brief: as §1
# [18] = target: Fuc(a1-2)Gal(b1-3)[Fuc(a1-4)]GlcNAc(b1-3)[Fuc(a1-3)[Gal(b1-4)]GlcNAc(b1-6)]Gal(b1-4)Glc
# Method in brief: as §1
# [19] = target: Fuc(a1-2)Gal(b1-3)[Fuc(a1-4)]GlcNAc(b1-3)[Gal(b1-4)GlcNAc(b1-6)]Gal(b1-4)Glc
# Method in brief: as §1
# [20] = target: Fuc(a1-2)Gal(b1-4)Glc
# Method in brief: as §1
# [21] = target: Fuc(a1-2)Gal(b1-4)Glc6S
# Method in brief: as §1
# [22] = target: Fuc(a1-2)Gal(b1-4)GlcNAc
# Method in brief: as §1
# [23] = target: Fuc(a1-2)Gal(b1-4)GlcNAc(b1-2)Man(a1-3)[Fuc(a1-2)Gal(b1-4)GlcNAc(b1-2)Man(a1-6)]Man(b1-4)GlcNAc(b1-4)GlcNAc
# Method in brief: as §1
# [24] = target: Fuc(a1-2)Gal(b1-4)GlcNAc(b1-2)Man(a1-3)[Fuc(a1-2)Gal(b1-4)GlcNAc(b1-2)Man(a1-6)]Man(b1-4)GlcNAc(b1-4)[Fuc(a1-6)]GlcNAc
# Method in brief: as §1
# [25] = target: Fuc(a1-2)Gal(b1-4)GlcNAc(b1-2)[Fuc(a1-2)Gal(b1-4)GlcNAc(b1-4)]Man(a1-3)[Fuc(a1-2)Gal(b1-4)GlcNAc(b1-2)Man(a1-6)]Man(b1-4)GlcNAc(b1-4)GlcNAc
# Method in brief: as §1
# [26] = target: Fuc(a1-2)Gal(b1-4)GlcNAc(b1-3)Gal(b1-4)GlcNAc
# Method in brief: as §1
# [27] = target: Fuc(a1-2)Gal(b1-4)GlcNAc(b1-3)Gal(b1-4)GlcNAc(b1-3)Gal(b1-4)GlcNAc
# Method in brief: as §1
# [28] = target: Fuc(a1-2)Gal(b1-4)GlcNAc(b1-3)GalNAc
# Method in brief: as §1
# [29] = target: Fuc(a1-2)Gal(b1-4)GlcNAc(b1-3)[Fuc(a1-2)Gal(b1-4)GlcNAc(b1-6)]GalNAc
# Method in brief: as §1
# [30] = target: Fuc(a1-2)Gal(b1-4)GlcNAc6S
# Method in brief: as §1
# [31] = target: Fuc(a1-2)Gal(b1-4)[Fuc(a1-3)]GlcNAc
# Method in brief: as §1
# [32] = target: Fuc(a1-2)Gal(b1-4)[Fuc(a1-3)]GlcNAc(b1-2)Man(a1-3)[Fuc(a1-2)Gal(b1-4)[Fuc(a1-3)]GlcNAc(b1-2)Man(a1-6)]Man(b1-4)GlcNAc(b1-4)GlcNAc
# Method in brief: as §1
# [33] = target: Fuc(a1-2)Gal(b1-4)[Fuc(a1-3)]GlcNAc(b1-2)[Fuc(a1-2)Gal(b1-4)[Fuc(a1-3)]GlcNAc(b1-4)]Man(a1-3)[Fuc(a1-2)Gal(b1-4)[Fuc(a1-3)]GlcNAc(b1-2)Man(a1-6)]Man(b1-4)GlcNAc(b1-4)GlcNAc
# Method in brief: as §1
# [34] = target: Fuc(a1-2)Gal(b1-4)[Fuc(a1-3)]GlcNAc(b1-3)Gal(b1-4)[Fuc(a1-3)]GlcNAc
# Method in brief: as §1
# [35] = target: Fuc(a1-2)Gal(b1-4)[Fuc(a1-3)]GlcNAc(b1-3)Gal(b1-4)[Fuc(a1-3)]GlcNAc(b1-3)Gal(b1-4)[Fuc(a1-3)]GlcNAc
# Method in brief: as §1
# [36] = target: Fuc(a1-2)Gal(b1-4)[Fuc(a1-3)]GlcNAc(b1-3)GalNAc
# Method in brief: as §1
# [37] = target: Fuc(a1-2)Gal6S(b1-4)Glc
# Method in brief: as §1
# [38] = target: Fuc(a1-2)Gal6S(b1-4)Glc6S
# Method in brief: as §1
# [39] = target: Fuc(a1-2)Gal6S(b1-4)GlcNAc
# Method in brief: as §1
# [40] = target: Fuc(a1-2)[Gal(a1-3)]Gal
# Method in brief: as §1
# [41] = target: Fuc(a1-2)[Gal(a1-3)]Gal(b1-3)GalNAc
# Method in brief: as §1
# [42] = target: Fuc(a1-2)[Gal(a1-3)]Gal(b1-3)GlcNAc
# Method in brief: as §1
# [43] = target: Fuc(a1-2)[Gal(a1-3)]Gal(b1-3)GlcNAc(b1-2)Man(a1-3)[Fuc(a1-2)[Gal(a1-3)]Gal(b1-3)GlcNAc(b1-2)Man(a1-6)]Man(b1-4)GlcNAc(b1-4)GlcNAc
# Method in brief: as §1
# [44] = target: Fuc(a1-2)[Gal(a1-3)]Gal(b1-3)GlcNAc(b1-2)Man(a1-3)[Fuc(a1-2)[Gal(a1-3)]Gal(b1-3)GlcNAc(b1-2)Man(a1-6)]Man(b1-4)GlcNAc(b1-4)[Fuc(a1-6)]GlcNAc
# Method in brief: as §1
# [45] = target: Fuc(a1-2)[Gal(a1-3)]Gal(b1-3)GlcNAc(b1-3)GalNAc
# Method in brief: as §1
binder,measurement,setting,value
"CD72 ectodomain (Homo sapiens), P21854 (protein) RYLQVSQQLQQTNRVLEVTNSSLRQQLRLKITQLGQSAEDLQGSRRELAQSQEALQVEQRAHQAAEGQLQACQADRQKTKETLQSEEQQRRALEQKLSNMENRLKPFFTCGSADTCCPSGWIMHQKSCFYISLTSKNWQESQKQCETLSSKLATFSEIYPQSHSYYFLNSLLPNGGSGNSYWTGLSSNKDWKLTDDTQRTRTYAQSSKCNKVHKTWSWWTLESESCRSSLPYICEMTAFRFPD",glycan array binding signal (z-score),[1],0.269
same,glycan array binding signal (z-score),[2],-0.551
same,glycan array binding signal (z-score),[3],1.18
same,glycan array binding signal (z-score),[4],-1.21
same,glycan array binding signal (z-score),[5],-0.429
same,glycan array binding signal (z-score),[6],-0.867
same,glycan array binding signal (z-score),[7],0.01
same,glycan array binding signal (z-score),[8],1.12
same,glycan array binding signal (z-score),[9],1.96
same,glycan array binding signal (z-score),[10],-0.47
same,glycan array binding signal (z-score),[11],0.488
same,glycan array binding signal (z-score),[12],-0.037
same,glycan array binding signal (z-score),[13],0.343
same,glycan array binding signal (z-score),[14],0.07
same,glycan array binding signal (z-score),[15],-1.56
same,glycan array binding signal (z-score),[16],-0.346
same,glycan array binding signal (z-score),[17],-0.538
same,glycan array binding signal (z-score),[18],-0.186
same,glycan array binding signal (z-score),[19],0.015
same,glycan array binding signal (z-score),[20],-0.221
same,glycan array binding signal (z-score),[21],1.24
same,glycan array binding signal (z-score),[22],-0.018
same,glycan array binding signal (z-score),[23],-1.39
same,glycan array binding signal (z-score),[24],1.93
same,glycan array binding signal (z-score),[25],1.08
same,glycan array binding signal (z-score),[26],-0.976
same,glycan array binding signal (z-score),[27],-0.885
same,glycan array binding signal (z-score),[28],1.08
same,glycan array binding signal (z-score),[29],1.7
same,glycan array binding signal (z-score),[30],1.04
same,glycan array binding signal (z-score),[31],0.378
same,glycan array binding signal (z-score),[32],1.11
same,glycan array binding signal (z-score),[33],0.317
same,glycan array binding signal (z-score),[34],-0.73
same,glycan array binding signal (z-score),[35],0.387
same,glycan array binding signal (z-score),[36],5.72
same,glycan array binding signal (z-score),[37],0.07
same,glycan array binding signal (z-score),[38],-0.873
same,glycan array binding signal (z-score),[39],-0.408
same,glycan array binding signal (z-score),[40],-0.32
same,glycan array binding signal (z-score),[41],-0.158
same,glycan array binding signal (z-score),[42],0.445
same,glycan array binding signal (z-score),[43],-0.356
same,glycan array binding signal (z-score),[44],2.7
same,glycan array binding signal (z-score),[45],1.37

# Taken from the listing for reference:
binder,measurement,setting,value
"CD72 ectodomain (Homo sapiens), P21854 (protein) RYLQVSQQLQQTNRVLEVTNSSLRQQLRLKITQLGQSAEDLQGSRRELAQSQEALQVEQRAHQAAEGQLQACQADRQKTKETLQSEEQQRRALEQKLSNMENRLKPFFTCGSADTCCPSGWIMHQKSCFYISLTSKNWQESQKQCETLSSKLATFSEIYPQSHSYYFLNSLLPNGGSGNSYWTGLSSNKDWKLTDDTQRTRTYAQSSKCNKVHKTWSWWTLESESCRSSLPYICEMTAFRFPD",glycan array binding signal (z-score),[7],0.01
same,glycan array binding signal (z-score),[8],1.12
same,glycan array binding signal (z-score),[9],1.96
same,glycan array binding signal (z-score),[10],-0.47
same,glycan array binding signal (z-score),[11],0.488
same,glycan array binding signal (z-score),[12],-0.037
same,glycan array binding signal (z-score),[13],0.343
same,glycan array binding signal (z-score),[14],0.07
same,glycan array binding signal (z-score),[15],-1.56
same,glycan array binding signal (z-score),[16],-0.346

# — the supplement of paper PMC8728848
